Experimental data taken from paper PMC7563118.
No constants are given. Whether binding was seen depends on the method and setting. Binding seen in cells or lysates may run through a third protein. Binding calls can cover weak binding; strength is not graded here. Where a sequence is shown, tags or fusion partners need not be part of it.

Columns and labels:
[1] = biological target: T1, GST-SH3 (C-terminal domain of LASP1) (human) (UniProt Q14847); test: pull-down; 1.5 nmol GST fusion on glutathione beads incubated overnight at 4 °C with 250 µg nuclear lysate of serum-starved, CXCL12-stimulated (20 nM) MDA-Bone-Un cells; 50 mM Tris-HCl pH 7.5, 0.05% Triton X-100, 100 mM NaCl; immunoblot of endogenous proteins; only the target purified
T1 sequence: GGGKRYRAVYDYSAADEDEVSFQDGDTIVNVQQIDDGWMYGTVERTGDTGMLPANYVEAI

[2] = biological target: T2, GST-LASP1 (full length, wild type) (human) (UniProt Q14847); test: as above
T2 sequence: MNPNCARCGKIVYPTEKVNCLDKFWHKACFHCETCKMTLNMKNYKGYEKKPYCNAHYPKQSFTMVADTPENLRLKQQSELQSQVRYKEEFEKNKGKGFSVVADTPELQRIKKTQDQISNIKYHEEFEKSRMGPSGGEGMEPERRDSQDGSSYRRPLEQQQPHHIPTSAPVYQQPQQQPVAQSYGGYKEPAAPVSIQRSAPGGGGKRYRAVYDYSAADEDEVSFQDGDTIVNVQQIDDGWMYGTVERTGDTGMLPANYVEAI

“Akt (Protein kinase B), endogenous (human (endogenous in MDA-Bone-Un))” was tested, and the binding [1] was “binds” and the binding [2] was “binds”.
